Measured values published in publication PMC6929984.
No constants are given. Whether binding was seen depends on the method and setting. Binding seen in cells or lysates may run through a third protein. Here binding means that the protein was enriched with, or labelled near, the bait; the list need not be complete.

Protein sequences, listed by entry. Tags and fused reporters are not part of them.
UniProt P43694: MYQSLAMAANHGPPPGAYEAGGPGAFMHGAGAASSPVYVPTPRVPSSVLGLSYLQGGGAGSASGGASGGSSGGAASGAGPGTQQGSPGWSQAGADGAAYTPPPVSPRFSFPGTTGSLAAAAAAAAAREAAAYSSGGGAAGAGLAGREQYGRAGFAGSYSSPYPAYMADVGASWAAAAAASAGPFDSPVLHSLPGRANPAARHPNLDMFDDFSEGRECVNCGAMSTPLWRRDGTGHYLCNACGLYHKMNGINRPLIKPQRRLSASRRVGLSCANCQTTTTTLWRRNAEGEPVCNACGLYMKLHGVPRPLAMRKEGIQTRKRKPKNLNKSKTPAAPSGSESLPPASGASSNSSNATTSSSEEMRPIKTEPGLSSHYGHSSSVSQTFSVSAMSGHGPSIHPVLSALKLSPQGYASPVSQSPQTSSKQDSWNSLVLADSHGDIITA
UniProt P35222: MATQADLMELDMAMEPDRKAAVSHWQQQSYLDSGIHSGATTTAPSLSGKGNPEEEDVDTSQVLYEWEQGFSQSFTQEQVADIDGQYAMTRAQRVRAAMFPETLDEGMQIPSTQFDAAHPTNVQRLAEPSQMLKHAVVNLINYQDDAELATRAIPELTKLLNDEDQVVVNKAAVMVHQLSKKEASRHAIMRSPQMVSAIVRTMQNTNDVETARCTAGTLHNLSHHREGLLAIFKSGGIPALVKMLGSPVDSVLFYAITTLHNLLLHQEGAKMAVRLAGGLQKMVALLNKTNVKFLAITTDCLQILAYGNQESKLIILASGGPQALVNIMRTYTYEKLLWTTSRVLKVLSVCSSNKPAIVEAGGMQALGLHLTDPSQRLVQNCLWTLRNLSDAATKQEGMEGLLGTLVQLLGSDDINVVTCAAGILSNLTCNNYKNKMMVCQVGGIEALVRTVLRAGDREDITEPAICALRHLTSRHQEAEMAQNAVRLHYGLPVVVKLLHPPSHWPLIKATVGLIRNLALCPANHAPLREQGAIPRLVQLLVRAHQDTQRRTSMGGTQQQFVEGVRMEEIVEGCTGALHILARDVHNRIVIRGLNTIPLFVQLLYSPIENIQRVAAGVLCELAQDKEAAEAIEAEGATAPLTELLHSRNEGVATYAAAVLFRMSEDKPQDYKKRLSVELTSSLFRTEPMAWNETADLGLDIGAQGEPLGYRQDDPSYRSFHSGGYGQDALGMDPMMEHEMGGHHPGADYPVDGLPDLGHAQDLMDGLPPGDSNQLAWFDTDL

Target: GATA4, doxycycline-inducible expression in HepG2i cells (human) (UniProt P43694)
Assay: affinity purification with mass spectrometry; immunoprecipitation with anti-GATA4 or control IgG from DOX treated HepG2i cells; SDS-PAGE, silver staining, LC-MS/MS

Which binding does the source give for “β-catenin, endogenous in HepG2 / HepG2i cells (from UniProt P35222 1-781)” here?
Its binding is “binds”.
